Literature values as cited in US7494821B2, “Fluorescein based sensors for tracking nitric oxide in live cells” (Massachusetts Institute of Technology, priority 2005, dated 2009).
At least one compound was matched to its structure with a doubt left.

Details: in 0.1 N NaOH; cited from earlier work

O=C1OC2(c3ccc(O)cc3Oc3cc(O)ccc32)c2ccccc21 [fluorescein]
quantum efficiency of reference solution: 0.95
